# Reference: PubChem BioAssay AID1259405 (NCATS, 2018)
# Assay: 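Knock-downs that lift recombinant protein yield in hamster ovary cells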 (primary screen)
# Cell system: Chinese hamster CHO-K1 ovary cells with stable secreted eGFP expression
# Knock-down reagent: single siRNA against mouse genes, 0.8 pmol siRNA per well (2 µl of 400 nM stock)
# Duration: 3 days
# Measurement: 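Percent of the per-plate non-targeting control median for intracellular GFP per well by laser scanning cytometry and for cell viability by ATP luminescence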
# Reading the numbers: GFP, % of control: higher = more GFP per well, higher productivity; viability (ATP), % of control: higher = more viable cells (more ATP)
# Active means: 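Called active when intracellular GFP, relative to negative control, is at or above 120%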
# This is one part, drawn at random, of about 50,000 deposited reagents. About 4,000 of them (8%) were called active. 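Mouse siRNA library applied to hamster cells; one well for each siRNA.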 Unmarked entries are inactive. Reagents against one gene are numbered here. No sequences are given here.
target gene,reagent,"GFP, % of control","viability (ATP), % of control"
Cd44,1,117,110
Cd44,2,156 (active),97.4
Nfyc,1,34.1,43.1
Nfyc,2,80.4,75.2
Nfyc,3,136 (active),88.6
Renbp,1,128 (active),98.3
Renbp,2,49.7,68.9
Renbp,3,67.6,69.4
Vps16,1,85.4,78.4
Vps16,2,71.1,81.1
Vps16,3,56.3,52.2
Rasd1,1,82.5,68.7
Rasd1,2,81.7,72.9
Rasd1,3,87,60
Pygm,1,110,92.5
Pygm,2,92.1,121
Pygm,3,111,111
Or51b6b,1,105,76.8
Or51b6b,2,80.7,73.5
Or51b6b,3,54.6,78.8
Or8g2b,1,85,56.7
Or8g2b,2,88.6,78.4
Or8g2b,3,60.1,47.2
Crnkl1,1,89.6,99.2
Crnkl1,2,77.3,63.3
Crnkl1,3,47.7,68.5
Csnk2a2,1,63.8,58
Nop58,1,102,74.8
Nop58,2,59.5,68.3
Efnb3,1,57.8,35.7
Efnb3,2,44.5,63.3
Efnb3,3,49.6,54.3
Cops5,1,71.5,67.8
Cops5,2,83,82

Part of the list above, showing only “GFP, % of control”.
Or8g2b #2	88.6
Or8g2b #3	60.1
Crnkl1 #1	89.6
Crnkl1 #2	77.3
Crnkl1 #3	47.7
Csnk2a2	63.8

Further records:
target gene,reagent,"GFP, % of control","viability (ATP), % of control"
Htatsf1,1,65.4,80.7
Htatsf1,2,46.3,66.4
Htatsf1,3,46.2,93.4
Tenm2,1,126 (active),89
Tenm2,2,109,105
Tenm2,3,21.1,20.8
Xirp1,1,69.1,101
Xirp1,2,78.5,99.7
Xirp1,3,99.4,91.9
Trnau1ap,1,62.1,43.6
Trnau1ap,2,95.6,77.1
Trnau1ap,3,68.9,54.1
2900092C05Rik,1,86,83.7
2900092C05Rik,2,102,68.7
2900092C05Rik,3,63.1,49.9
Arhgap30,1,62.9,99
Arhgap30,2,70.5,61
Arhgap30,3,30.2,37.5
Drc11,1,51.9,80.1
Drc11,2,110,71.6
Drc11,3,89.2,137
Matr3,1,106,113
Matr3,2,55.2,64.7
Matr3,3,57.5,73.5
Pglyrp3,1,126 (active),122
Pglyrp3,2,84.9,60.1
Pglyrp3,3,93.8,71.1
Sgms2,1,59.9,56.6
Sgms2,2,96.5,71.1
Sgms2,3,93.5,72.6
Ddx1,1,72.4,49.8
Ddx1,2,50.1,30
Ddx1,3,167 (active),120
Acsl6,1,77.5,53.9
Acsl6,2,59,72.9
Acsl6,3,29.7,62.5
Arf3,1,85.6,108
Arf3,2,83.4,101
Arf3,3,94.6,133
Gtpbp1,1,82.7,69.8
Gtpbp1,2,62,32.5
Gtpbp1,3,87.4,65.3
Il4i1,1,85.4,85.1
Il4i1,2,63.4,81.1
Il4i1,3,55.1,73.5
Cndp1,1,90,84.4
Cndp1,2,75.1,88.5
Cndp1,3,151 (active),158
Cndp1,4,74.1,107
Cndp1,5,69.6,77.7
Cndp1,6,59,83.5
